Assay [1] has as its target T1, GST-PIRH2 N-terminus (aa 1–137) (human) (UniProt Q96PM5).
T1 sequence: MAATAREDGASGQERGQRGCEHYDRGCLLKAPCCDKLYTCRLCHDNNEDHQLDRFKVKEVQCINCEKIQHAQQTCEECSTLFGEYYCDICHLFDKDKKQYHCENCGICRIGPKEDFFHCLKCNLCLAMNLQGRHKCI
Put plainly: pull-down; GST pull-down: purified GST-PIRH2 (full length or fragments) incubated with His-c-MYC fusion proteins, 1:2 molar ratio, 4°C overnight, PBS pH 7.4, 100 mM NaCl, 5 mM βME; glutathione-Sepharose, eluted with 30 mM reduced glutathione; SDS-PAGE and Coomassie staining; both purified.

Chains of the proteins cited; added tags and fusions are not shown. Lines headed by an entry give the natural chain unless they say otherwise; changes in a name come on top.
UniProt P01106: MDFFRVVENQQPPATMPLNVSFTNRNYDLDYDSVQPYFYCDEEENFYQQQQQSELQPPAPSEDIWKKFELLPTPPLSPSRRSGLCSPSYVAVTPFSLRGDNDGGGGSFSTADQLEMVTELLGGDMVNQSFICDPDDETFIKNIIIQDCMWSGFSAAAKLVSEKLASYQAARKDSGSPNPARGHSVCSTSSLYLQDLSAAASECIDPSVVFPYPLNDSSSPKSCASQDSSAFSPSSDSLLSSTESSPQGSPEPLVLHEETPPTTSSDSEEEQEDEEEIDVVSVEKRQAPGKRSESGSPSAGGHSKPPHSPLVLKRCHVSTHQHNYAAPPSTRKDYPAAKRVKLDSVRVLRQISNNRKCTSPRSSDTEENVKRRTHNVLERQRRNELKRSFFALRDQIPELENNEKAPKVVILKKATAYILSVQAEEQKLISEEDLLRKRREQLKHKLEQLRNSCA

Assay [2] has as its target T2, GST-PIRH2 (aa 138–261) (human) (UniProt Q96PM5).
T2 sequence: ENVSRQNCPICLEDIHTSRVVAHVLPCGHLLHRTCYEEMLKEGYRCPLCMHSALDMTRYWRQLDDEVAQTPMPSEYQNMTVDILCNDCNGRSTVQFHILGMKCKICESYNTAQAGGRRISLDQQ
Described as above.

Assay [3] concerns the target T3, human PIRH2 (pcDNA3-hPIRH2) (human) (UniProt Q96PM5).
T3 sequence: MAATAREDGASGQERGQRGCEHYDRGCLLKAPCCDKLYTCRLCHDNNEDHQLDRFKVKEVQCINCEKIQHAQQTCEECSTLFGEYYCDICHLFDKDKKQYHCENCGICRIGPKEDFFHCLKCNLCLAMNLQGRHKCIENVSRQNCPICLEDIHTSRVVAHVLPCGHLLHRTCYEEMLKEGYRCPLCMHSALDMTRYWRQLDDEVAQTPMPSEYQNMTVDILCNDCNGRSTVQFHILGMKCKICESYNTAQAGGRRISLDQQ
Put plainly: co-IP; HEK293T cells transfected with PIRH2 and c-MYC plasmids, lysed after 48 h (50 mM Tris-HCl pH 7.4, 150 mM NaCl, 1% Triton-X); IP with anti-PIRH2 or anti-c-MYC antibody, immunoblot. On the technique in general: In western blotting, separated proteins are transferred to a membrane and probed.

Assay [4] has as its target human c-MYC (pcDNA3-c-MYC) (human) (UniProt P01106). Described as above.

These are yes or no findings as the source states them, for the method shown. A result given as binding can be weak or reduced; the word gives no strength. For some assays here: Where a sequence is shown, tags or fusion partners need not be part of it. For some assays here: In cells and extracts the contact can be indirect.

As for “His-c-MYC (353–434 aa) (human) (domain or fragment)”, the binding result in assay [1] is on record as “binds”.

With “His-c-MYC boxI (1–69 aa) (human) (domain or fragment)”, in assay [2], the binding entry was “no binding”. As to “c-MYCboxII (120–160 aa) (human) (domain or fragment)”, the binding result in assay [2] is on record as “binds”.

For “human c-MYC (pcDNA3-c-MYC) (from UniProt P01106)”, the binding entry in assay [3] is reported as “binds”.

B1: human PIRH2 (pcDNA3-hPIRH2) (protein, UniProt Q96PM5 1-261)
chain: MAATAREDGASGQERGQRGCEHYDRGCLLKAPCCDKLYTCRLCHDNNEDHQLDRFKVKEVQCINCEKIQHAQQTCEECSTLFGEYYCDICHLFDKDKKQYHCENCGICRIGPKEDFFHCLKCNLCLAMNLQGRHKCIENVSRQNCPICLEDIHTSRVVAHVLPCGHLLHRTCYEEMLKEGYRCPLCMHSALDMTRYWRQLDDEVAQTPMPSEYQNMTVDILCNDCNGRSTVQFHILGMKCKICESYNTAQAGGRRISLDQQ
B1: the binding result in assay [4] is “binds”.

Source of the values: paper PMC3219591.
